Experimental data from publication doi:10.1101/2023.09.01.555812.
Results are given in words; binding and its absence hold for the method and conditions named. Binding seen in cells or lysates may run through a third protein. Some results given as binding are weak or reduced against the parent protein; the word gives no strength.

By UniProt entry, the sequences of proteins in these tests, tags left out. Residues count along the entry.
UniProt P10912, residues 19-638: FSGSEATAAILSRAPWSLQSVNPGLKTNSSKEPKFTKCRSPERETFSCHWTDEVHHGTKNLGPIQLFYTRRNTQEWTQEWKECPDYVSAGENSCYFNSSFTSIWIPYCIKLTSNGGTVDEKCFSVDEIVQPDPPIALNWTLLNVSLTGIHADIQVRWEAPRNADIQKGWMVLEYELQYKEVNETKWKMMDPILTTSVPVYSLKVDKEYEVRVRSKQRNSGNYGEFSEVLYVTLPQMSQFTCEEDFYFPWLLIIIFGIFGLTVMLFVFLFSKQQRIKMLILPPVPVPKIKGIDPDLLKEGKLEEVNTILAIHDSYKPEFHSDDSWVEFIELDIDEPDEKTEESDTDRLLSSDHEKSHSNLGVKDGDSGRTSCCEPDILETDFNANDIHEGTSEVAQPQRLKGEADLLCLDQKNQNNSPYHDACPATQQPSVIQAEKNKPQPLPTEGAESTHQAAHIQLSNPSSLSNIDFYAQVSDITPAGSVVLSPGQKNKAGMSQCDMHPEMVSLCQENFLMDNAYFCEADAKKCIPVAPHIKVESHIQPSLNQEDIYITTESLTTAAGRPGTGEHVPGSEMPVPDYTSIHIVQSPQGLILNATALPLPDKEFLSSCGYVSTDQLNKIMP

Molecular target: T1, human prolactin receptor (human (endogenous in T47D)) (UniProt P16471)
T1 sequence: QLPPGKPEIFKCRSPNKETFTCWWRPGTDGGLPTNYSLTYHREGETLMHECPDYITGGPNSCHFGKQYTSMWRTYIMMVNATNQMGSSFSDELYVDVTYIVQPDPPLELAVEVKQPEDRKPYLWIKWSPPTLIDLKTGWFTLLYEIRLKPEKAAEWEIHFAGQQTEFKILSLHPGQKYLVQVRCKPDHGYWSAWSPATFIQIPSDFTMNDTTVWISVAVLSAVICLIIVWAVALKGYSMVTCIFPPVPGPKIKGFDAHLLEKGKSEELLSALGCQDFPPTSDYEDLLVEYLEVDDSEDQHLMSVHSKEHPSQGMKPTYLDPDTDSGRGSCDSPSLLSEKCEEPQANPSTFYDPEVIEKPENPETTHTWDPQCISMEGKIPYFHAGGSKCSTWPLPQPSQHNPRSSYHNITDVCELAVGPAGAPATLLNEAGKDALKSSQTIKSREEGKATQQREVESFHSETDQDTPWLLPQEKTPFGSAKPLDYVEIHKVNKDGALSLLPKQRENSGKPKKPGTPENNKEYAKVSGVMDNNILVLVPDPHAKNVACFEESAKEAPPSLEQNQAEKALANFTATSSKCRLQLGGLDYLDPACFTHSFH
Assay: proximity ligation

binding: binds
Substance: human growth hormone receptor (from UniProt P10912 19-638)
